Test results: publication doi:10.1101/2023.01.11.523622
These are yes or no findings as the source states them, for the method shown. In cells and extracts the contact can be indirect. Some results given as binding are weak or reduced against the parent protein; the word gives no strength.

Sequences of proteins named here, by UniProt entry; tags and fusion partners are left off.
UniProt Q93009: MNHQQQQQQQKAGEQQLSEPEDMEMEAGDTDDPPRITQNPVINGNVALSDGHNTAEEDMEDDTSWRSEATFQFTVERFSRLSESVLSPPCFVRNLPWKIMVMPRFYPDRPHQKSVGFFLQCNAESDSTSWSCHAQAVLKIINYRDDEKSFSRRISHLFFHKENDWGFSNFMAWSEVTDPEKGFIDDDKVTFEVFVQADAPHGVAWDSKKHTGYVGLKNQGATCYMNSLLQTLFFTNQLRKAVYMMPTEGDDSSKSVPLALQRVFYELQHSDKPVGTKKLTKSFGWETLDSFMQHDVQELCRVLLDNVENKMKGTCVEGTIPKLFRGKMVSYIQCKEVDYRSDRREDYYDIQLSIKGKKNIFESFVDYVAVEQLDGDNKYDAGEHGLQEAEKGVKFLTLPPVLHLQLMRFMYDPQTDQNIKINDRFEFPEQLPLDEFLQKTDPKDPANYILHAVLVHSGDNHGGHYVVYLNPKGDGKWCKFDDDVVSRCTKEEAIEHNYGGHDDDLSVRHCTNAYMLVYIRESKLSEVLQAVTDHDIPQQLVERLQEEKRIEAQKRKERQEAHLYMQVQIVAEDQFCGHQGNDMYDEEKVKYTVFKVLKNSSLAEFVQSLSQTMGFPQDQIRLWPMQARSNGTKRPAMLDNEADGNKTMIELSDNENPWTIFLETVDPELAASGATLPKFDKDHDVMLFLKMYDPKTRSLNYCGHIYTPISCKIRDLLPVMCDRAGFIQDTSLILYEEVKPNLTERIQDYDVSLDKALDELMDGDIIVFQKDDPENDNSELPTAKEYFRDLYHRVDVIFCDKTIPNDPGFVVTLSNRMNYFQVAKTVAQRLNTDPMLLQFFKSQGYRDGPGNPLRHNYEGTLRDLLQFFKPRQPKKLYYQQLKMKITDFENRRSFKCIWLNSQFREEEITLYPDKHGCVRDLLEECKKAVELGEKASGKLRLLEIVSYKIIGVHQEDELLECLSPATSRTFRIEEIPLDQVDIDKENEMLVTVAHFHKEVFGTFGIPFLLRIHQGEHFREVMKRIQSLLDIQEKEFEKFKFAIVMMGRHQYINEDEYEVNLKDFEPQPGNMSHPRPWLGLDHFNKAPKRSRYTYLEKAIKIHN
UniProt O00571: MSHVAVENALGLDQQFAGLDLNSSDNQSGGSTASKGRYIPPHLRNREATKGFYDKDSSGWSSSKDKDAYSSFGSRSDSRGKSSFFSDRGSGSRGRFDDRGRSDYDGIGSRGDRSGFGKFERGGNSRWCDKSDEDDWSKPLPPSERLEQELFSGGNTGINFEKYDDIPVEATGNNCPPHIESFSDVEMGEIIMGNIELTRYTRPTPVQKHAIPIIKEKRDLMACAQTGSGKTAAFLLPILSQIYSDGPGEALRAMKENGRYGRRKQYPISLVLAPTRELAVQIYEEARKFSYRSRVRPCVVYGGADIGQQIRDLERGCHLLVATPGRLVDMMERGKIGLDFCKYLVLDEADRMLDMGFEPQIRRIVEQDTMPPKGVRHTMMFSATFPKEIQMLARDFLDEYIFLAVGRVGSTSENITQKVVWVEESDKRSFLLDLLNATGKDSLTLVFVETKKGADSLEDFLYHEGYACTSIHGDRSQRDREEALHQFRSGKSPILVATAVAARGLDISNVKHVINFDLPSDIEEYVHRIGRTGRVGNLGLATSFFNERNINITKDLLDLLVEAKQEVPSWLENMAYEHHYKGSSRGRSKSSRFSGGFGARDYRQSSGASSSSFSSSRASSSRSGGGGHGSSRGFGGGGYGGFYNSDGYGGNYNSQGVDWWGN

Tests used:
[1] = molecular target: GFP-tagged USP7, full length (UniProt Q93009); test: co-IP
[2] = molecular target: FLAG-tagged DDX3X (UniProt O00571); test: co-IP

| binding [1] | binding [2] | Substance |
| --- | --- | --- |
| binds |  | FLAG-tagged DDX3X (from UniProt O00571 1-662) |
|  | binds | Endogenous USP7 (from UniProt Q93009 1-1102) (enzyme) |
